Measured values from PMC5993331.
No constants are given. Whether binding was seen depends on the method and setting. Where a sequence is shown, tags or fusion partners need not be part of it.

Protein sequences, listed by entry. Tags and fused reporters are not part of them. Residues count along the entry.
UniProt P08603, residues 19-1231: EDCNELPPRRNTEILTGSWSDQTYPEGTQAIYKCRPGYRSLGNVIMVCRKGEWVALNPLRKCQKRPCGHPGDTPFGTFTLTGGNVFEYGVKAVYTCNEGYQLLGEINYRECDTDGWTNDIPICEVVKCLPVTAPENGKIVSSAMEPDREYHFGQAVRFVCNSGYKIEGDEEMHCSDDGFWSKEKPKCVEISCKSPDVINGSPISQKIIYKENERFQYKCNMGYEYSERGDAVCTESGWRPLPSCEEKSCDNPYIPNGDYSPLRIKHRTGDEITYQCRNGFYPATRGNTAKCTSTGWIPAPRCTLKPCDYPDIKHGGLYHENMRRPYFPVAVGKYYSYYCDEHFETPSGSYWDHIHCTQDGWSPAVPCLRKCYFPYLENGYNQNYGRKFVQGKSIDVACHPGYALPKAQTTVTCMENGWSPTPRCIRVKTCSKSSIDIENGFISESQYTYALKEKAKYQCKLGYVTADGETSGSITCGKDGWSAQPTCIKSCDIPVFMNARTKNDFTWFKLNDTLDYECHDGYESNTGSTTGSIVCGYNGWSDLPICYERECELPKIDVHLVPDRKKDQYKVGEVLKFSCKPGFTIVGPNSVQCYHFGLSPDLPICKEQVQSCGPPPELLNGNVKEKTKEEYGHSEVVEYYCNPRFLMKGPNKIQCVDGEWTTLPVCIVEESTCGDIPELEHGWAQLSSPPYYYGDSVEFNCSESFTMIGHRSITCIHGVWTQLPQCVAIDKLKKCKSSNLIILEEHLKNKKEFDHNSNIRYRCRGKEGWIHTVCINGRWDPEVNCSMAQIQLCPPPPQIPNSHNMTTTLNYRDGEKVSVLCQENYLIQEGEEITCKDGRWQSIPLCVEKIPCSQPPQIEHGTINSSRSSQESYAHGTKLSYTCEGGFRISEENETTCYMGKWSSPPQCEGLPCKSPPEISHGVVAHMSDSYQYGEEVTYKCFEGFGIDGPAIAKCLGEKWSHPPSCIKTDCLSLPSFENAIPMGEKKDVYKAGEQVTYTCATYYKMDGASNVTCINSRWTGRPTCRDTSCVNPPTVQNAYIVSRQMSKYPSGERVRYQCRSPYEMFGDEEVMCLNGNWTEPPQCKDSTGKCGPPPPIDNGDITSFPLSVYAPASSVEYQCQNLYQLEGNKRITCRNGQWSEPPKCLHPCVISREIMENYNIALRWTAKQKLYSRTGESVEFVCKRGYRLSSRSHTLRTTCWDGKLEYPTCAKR
UniProt P06909, residues 19-1234: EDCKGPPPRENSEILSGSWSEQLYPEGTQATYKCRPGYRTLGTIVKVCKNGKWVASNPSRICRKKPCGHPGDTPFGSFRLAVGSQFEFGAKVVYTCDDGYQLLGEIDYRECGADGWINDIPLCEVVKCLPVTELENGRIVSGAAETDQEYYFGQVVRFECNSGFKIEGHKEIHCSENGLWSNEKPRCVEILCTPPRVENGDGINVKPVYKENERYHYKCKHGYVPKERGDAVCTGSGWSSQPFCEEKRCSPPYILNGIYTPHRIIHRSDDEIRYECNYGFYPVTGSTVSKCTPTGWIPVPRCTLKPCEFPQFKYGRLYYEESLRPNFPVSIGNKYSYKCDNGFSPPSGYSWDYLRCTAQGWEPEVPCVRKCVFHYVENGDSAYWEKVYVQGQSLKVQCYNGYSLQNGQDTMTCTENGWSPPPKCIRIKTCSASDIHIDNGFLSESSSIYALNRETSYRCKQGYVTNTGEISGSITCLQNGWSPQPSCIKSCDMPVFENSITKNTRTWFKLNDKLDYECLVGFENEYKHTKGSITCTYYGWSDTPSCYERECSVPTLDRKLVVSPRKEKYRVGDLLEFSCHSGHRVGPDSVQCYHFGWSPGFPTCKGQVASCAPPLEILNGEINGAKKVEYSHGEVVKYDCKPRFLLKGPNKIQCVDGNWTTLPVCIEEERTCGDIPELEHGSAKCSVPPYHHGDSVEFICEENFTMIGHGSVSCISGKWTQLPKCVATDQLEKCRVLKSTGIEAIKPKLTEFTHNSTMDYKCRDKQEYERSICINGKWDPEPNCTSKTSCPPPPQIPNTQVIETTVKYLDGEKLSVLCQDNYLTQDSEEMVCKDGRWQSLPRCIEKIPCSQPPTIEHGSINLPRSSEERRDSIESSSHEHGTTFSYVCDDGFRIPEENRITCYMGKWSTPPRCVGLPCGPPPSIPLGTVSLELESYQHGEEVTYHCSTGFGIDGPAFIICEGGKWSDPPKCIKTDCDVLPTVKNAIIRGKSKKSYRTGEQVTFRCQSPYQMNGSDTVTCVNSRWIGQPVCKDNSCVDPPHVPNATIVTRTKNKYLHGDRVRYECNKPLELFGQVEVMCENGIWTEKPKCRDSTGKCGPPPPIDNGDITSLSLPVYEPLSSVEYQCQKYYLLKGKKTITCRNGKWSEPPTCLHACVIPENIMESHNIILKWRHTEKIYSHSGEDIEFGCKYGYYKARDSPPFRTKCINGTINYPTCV

Assays:
[1] = biological target: factor H (FH) from human, purified (human) (UniProt P08603); test: ELISA; one microgram of FH coated on microtiter wells; 0.03125 to 2 μM histidine-tagged CspA proteins or DbpA added; detected by mouse anti-histidine tag; KD from a one-site fit of OD405; both purified
[2] = biological target: factor H (FH) from mouse, purified (mouse (Mus musculus)) (UniProt P06909); test: as above

B1: histidine-tagged DbpA from B. burgdorferi strain B31 (protein, UniProt O50917 30-191)
chain: ATKIRLERSAKDITDEIDAIKKDAALKGVNFDAFKDKKTGSGVSENPFILEAKVRATTVAEKFVIAIEEEATKLKETGSSGEFSAMYDLMFEVSKPLQKLGIQEMTKTVSDAAEENPPTTAQGVLEIAKKMREKLQRVHTKNYCTLKKKENSTFTDEKCKNN
In the case of B1, the binding [1] is reported as “no binding (tested: 2 μM)” and the binding [2] is reported as “no binding (tested: 2 μM)”.
